Our source for the binding values is article PMC10816717.

Sequences of proteins named here, by UniProt entry; tags and fusion partners are left off. Residues count along the entry.
UniProt Q14BI2, residues 19-872: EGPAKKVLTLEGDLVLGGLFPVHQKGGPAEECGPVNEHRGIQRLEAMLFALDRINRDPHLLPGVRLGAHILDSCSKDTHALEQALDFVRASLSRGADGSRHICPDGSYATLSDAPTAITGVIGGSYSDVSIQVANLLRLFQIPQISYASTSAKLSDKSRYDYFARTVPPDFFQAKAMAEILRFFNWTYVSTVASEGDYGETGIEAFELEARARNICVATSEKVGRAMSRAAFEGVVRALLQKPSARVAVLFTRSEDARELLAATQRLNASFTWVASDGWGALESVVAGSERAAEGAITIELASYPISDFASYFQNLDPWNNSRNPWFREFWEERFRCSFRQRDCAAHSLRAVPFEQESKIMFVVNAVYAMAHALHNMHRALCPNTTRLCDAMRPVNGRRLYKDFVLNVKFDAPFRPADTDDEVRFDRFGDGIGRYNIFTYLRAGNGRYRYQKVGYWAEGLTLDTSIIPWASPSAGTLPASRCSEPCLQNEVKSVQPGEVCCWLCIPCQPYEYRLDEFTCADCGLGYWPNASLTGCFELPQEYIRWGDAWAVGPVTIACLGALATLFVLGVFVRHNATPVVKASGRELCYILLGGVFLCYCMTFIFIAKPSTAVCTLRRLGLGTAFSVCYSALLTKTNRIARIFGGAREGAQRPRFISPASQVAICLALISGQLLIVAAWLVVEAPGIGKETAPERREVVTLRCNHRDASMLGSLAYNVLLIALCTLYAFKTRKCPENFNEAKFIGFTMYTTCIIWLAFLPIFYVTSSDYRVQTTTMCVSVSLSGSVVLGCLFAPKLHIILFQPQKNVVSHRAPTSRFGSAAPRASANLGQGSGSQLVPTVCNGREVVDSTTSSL
UniProt P15209, residues 32-821: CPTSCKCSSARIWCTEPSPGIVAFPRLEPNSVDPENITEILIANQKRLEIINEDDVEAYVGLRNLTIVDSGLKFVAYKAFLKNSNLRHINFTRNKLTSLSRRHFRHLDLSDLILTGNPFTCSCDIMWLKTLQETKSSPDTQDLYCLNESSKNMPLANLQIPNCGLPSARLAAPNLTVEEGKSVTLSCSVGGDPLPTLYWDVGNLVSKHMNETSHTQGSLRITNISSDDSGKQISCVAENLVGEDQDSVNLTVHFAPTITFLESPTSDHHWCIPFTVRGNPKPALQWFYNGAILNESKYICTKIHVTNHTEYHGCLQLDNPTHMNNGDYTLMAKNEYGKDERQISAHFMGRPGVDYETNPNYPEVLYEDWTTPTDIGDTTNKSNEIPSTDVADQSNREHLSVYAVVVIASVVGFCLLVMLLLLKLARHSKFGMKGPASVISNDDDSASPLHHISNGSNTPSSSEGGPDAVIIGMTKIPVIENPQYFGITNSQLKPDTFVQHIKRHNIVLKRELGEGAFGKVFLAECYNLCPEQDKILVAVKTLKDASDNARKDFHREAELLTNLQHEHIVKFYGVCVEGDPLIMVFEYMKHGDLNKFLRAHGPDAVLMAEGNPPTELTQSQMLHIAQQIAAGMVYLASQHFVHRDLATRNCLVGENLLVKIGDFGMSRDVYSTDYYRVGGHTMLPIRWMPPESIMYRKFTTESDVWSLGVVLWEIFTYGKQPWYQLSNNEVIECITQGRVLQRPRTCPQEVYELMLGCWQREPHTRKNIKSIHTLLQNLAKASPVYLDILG
UniProt P97772, residues 21-1199: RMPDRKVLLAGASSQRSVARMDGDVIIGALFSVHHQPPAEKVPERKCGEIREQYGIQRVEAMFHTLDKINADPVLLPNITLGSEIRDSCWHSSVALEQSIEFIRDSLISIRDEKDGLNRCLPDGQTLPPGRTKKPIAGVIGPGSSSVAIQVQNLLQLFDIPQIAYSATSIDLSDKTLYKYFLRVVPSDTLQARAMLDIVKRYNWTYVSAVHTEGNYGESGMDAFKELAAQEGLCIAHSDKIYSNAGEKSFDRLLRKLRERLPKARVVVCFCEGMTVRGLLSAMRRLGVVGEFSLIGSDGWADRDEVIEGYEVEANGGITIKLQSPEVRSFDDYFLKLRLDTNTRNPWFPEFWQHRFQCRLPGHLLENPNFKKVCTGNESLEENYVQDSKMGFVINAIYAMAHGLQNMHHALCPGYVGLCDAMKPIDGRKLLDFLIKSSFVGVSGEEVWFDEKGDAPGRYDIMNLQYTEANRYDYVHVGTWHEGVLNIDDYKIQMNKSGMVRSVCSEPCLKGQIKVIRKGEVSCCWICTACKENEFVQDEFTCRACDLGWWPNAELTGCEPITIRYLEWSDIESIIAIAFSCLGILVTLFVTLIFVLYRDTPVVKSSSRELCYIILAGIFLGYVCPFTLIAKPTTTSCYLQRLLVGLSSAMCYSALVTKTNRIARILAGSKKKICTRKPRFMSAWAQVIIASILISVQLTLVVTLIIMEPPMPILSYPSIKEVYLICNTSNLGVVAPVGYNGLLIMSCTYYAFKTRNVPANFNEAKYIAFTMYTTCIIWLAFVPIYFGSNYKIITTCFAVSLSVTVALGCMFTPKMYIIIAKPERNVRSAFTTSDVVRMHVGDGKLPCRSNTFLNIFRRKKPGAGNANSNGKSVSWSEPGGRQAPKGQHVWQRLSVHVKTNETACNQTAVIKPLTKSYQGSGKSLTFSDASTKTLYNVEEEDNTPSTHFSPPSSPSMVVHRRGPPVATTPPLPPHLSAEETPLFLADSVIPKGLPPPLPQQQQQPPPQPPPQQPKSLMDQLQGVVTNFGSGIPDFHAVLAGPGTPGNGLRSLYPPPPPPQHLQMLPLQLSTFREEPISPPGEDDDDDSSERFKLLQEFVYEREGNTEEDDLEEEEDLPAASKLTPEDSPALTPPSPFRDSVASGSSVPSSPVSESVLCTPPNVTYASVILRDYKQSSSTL
UniProt Q9QYS2, residues 23-879: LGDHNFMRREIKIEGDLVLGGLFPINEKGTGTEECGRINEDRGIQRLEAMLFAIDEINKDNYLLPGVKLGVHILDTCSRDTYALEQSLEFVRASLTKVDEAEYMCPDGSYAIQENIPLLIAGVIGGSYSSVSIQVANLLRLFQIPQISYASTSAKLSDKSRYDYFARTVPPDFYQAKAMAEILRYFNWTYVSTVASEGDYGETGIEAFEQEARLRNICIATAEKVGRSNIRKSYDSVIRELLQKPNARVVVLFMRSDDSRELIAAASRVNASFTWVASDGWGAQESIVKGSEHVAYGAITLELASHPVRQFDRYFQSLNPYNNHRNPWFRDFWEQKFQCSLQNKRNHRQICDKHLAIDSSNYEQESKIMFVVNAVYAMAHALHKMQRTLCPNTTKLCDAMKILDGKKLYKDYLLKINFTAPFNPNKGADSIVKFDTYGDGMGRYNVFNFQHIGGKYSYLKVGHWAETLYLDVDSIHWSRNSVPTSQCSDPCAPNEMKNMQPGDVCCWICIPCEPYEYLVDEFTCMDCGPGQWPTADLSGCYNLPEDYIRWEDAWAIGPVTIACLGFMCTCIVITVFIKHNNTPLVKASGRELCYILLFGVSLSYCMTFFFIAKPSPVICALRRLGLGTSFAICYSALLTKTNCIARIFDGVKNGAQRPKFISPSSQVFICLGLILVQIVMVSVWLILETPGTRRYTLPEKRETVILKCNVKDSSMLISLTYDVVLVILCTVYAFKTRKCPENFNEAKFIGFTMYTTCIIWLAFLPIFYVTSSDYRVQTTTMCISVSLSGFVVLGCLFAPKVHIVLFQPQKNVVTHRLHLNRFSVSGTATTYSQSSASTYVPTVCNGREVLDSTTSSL
UniProt Q68ED2, residues 35-915: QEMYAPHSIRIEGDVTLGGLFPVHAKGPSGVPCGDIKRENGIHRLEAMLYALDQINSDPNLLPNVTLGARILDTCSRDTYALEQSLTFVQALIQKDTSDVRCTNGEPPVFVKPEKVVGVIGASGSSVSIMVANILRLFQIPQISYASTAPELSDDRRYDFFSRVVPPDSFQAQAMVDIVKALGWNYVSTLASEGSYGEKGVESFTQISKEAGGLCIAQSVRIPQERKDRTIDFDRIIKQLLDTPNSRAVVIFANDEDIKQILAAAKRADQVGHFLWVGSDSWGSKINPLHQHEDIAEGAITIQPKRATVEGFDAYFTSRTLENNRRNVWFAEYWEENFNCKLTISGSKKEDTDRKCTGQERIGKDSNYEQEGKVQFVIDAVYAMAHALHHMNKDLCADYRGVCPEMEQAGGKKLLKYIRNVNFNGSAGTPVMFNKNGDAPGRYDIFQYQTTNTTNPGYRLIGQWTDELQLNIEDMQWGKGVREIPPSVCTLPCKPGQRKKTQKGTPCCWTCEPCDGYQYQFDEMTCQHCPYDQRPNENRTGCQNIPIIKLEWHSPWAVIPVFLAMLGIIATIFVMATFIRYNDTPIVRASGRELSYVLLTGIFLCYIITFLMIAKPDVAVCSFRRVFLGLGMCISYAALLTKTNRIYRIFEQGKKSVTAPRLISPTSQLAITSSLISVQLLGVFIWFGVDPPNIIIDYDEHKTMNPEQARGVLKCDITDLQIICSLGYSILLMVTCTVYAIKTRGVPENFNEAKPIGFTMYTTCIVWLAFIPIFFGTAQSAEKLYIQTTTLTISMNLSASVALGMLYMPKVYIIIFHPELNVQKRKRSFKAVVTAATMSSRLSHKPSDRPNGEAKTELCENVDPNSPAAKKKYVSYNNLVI
UniProt Q01097, residues 27-1482: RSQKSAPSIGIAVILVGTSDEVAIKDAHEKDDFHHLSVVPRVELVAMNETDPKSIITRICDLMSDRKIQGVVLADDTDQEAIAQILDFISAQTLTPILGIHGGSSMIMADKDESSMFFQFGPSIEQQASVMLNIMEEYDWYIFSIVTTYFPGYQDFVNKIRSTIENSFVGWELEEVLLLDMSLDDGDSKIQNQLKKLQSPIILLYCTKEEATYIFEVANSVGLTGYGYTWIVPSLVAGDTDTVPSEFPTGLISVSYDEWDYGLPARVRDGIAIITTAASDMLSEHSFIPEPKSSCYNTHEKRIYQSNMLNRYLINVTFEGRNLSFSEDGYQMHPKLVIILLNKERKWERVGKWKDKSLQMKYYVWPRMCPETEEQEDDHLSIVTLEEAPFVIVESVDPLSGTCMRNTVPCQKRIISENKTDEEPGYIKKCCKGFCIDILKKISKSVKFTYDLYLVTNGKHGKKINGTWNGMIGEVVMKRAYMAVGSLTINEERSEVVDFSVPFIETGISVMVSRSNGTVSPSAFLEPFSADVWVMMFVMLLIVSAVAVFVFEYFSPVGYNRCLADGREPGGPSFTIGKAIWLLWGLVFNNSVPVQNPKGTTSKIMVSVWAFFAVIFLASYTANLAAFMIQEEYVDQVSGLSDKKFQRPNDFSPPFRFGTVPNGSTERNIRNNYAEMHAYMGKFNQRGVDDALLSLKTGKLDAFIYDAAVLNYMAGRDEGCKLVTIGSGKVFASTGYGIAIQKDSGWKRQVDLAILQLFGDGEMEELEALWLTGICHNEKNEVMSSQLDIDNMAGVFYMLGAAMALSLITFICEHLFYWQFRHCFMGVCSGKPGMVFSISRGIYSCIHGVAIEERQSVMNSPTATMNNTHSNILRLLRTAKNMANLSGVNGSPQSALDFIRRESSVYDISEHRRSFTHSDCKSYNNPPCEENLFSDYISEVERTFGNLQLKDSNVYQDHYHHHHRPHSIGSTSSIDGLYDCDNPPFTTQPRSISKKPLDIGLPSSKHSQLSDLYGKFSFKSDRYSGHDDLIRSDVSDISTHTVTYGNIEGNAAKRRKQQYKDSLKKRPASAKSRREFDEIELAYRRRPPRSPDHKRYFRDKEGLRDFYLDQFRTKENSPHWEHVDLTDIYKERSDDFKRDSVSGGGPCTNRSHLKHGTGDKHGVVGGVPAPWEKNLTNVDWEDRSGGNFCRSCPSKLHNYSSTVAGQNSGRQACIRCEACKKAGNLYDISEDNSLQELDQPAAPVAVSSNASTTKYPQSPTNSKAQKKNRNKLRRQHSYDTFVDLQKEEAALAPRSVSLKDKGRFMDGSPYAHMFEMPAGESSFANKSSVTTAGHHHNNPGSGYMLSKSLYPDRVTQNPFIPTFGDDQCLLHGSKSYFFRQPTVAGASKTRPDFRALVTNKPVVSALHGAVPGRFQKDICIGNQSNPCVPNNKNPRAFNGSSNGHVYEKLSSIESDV

No constants are given. Whether binding was seen depends on the method and setting. Binding seen in cells or lysates may run through a third protein. These calls come from enrichment with a bait or labelling near it, and not all partners need be listed. No binding means not detected with the bait.

The experiment deals with Metabotropic glutamate receptor 2 (mGlu2), endogenous mouse (mouse (endogenous in prefrontal cortex, brain slices and cortical neurons)) (UniProt Q14BI2). The experiment in a line: affinity purification with mass spectrometry; mouse PFC lysate (2% lauryl maltose neopentyl glycol, 150 mM NaCl, 50 mM tris-HCl pH 7.4), 1 mg protein, anti-mGlu2 nanobody (5 μg) on Ni-NTA agarose beads; washes with 500 mM NaCl; control with a nonimmune nanobody; three biological replicates.
On to “BDNF/NT-3 growth factor receptor TrkB, endogenous mouse (from UniProt P15209 32-821)”, for which the binding entry is on record as “binds”.

Consider “mGlu1, endogenous mouse (from UniProt P97772 21-1199) (receptor)”, for which the binding result was “no binding”.

With “mGlu3, endogenous mouse (from UniProt Q9QYS2 23-879) (receptor)”, the binding entry was “binds”. With “mGlu7, endogenous mouse (from UniProt Q68ED2 35-915) (receptor)”, the binding result was “binds”. On to “mGlu8, endogenous mouse (from UniProt P47743 34-908) (receptor)”, for which the binding result is “binds”. As for “subunit 2A of glutamate ionotropic receptor of N-methyl-D-aspartate type, endogenous mouse (from UniProt P35436 23-1464)”, the binding entry is recorded as “binds”. The entry for “subunit 2B of glutamate ionotropic receptor of N-methyl-D-aspartate type, endogenous mouse (from UniProt Q01097 27-1482)” is “binds”.
